Data published in US20250281473A1, “CDK Inhibitors And Their Use As Pharmaceuticals” (PRELUDE THERAPEUTICS INCORPORATED, priority 2024, published 2025).
At least one compound was matched to its structure with a doubt left.

System: TMD-8 subcutaneous xenograft
Experiment: TMD-8 (DLBCL) cell line-derived subcutaneous xenograft, tumor growth
Assay type: in vivo
Conditions: Example 3, FIG. 9; Venetoclax 50 mg/kg QD orally
From the text: See FIG. 3 (Data represented as mean±SEM. N=8, ***P<0.001, ****P<0.0001 by Mann-Whitney U test). […]
See FIG. 9 (Data represented as mean±SEM. N=8, *P<0.05, **P<0.001, ***P<0.001 by Mann-Whitney U test).

CC1(C)CCC(CN2CCN(c3ccc(C(=O)NS(=O)(=O)c4ccc(NCC5CCOCC5)c([N+](=O)[O-])c4)c(Oc4cnc5[nH]ccc5c4)c3)CC2)=C(c2ccc(Cl)cc2)C1 [Venetoclax, reference compound]
tumor growth inhibition: no tumor growth inhibition
